# Reference: patent publication US9415096B2 (priority 2007, dated 2016)
# “Also recorded” adds a separate entry of the source. At least one peptide structure holds a part that was inferred or is arguable (an end, a ring closure or a residue). Some entries repeat one wording, which the source may state once for all of them. Ends that are not written are not given here.
# Test system: T2-A2 cells
# Assay: ELISPOT assay of IFN-γ production by FOXM1 peptide-induced killer T cells
# Format: cell-based, human
# Details: for IFN-γ production / FOXM1 peptide-specific killer T cell activation (ELISPOT): killer T cells induced with peptide-pulsed dendritic cells (10 μM peptide), peptide bound to HLA-A2 on T2-A2 target cells; for killer T cell-inducing activity: summary statement on the Examples
Sequence,IFN-γ production / FOXM1 peptide-specific killer T cell activation (ELISPOT),killer T cell-inducing activity
"SLVLQPSVKV [FOXM1 373-382, SLVLQPSVKV]",killer T cell activation was observed; also recorded: produced IFN-γ,particularly high killer T cell-inducing activity
"YLVPIQFPV [FOXM1 362-370, YLVPIQFPV]",killer T cell activation was observed; also recorded: produced IFN-γ,particularly high killer T cell-inducing activity
"GLMDLSTTPL [FOXM1 640-649, GLMDLSTTPL]",killer T cell activation was observed; also recorded: produced IFN-γ,particularly high killer T cell-inducing activity
